The values that follow come from article PMC10005301, “Prediction of the n-Octanol/Water Partition Coefficients of Basic Compounds Using Multi-Parameter QSRR Models Based on IS-RPLC Retention Behavior in a Wide pH Range” (Molecules, 2023).

A short description of data set [1]: IS-RPLC retention on silica-based C18 column, logkw by linear solvent strength model. It counts as physicochemical. The following applies: methanol/20 mmol/L ammonium phosphate buffer, Welch Xtimate C18, 30 °C, 100% aqueous extrapolation. The protocol: (§1) The retention behavior of the 42 basic compounds (Table 1) were investigated at different ratios of methanol (φ = 0.7–0.1, the interval was 0.1 or 0.05 based on the retention of the investigated solutes). The logk values were plotted versus φ for each solute at pH 7.0, pH 8.0, pH 9.0, and pH 10.0. […] The logD values of the model compounds and verification compounds calculated using Equation (S3) based on the logP and pH values are also listed in Table 1.
The column temperature was set at 30 °C. Methanol and 20 mmol/L ammonium phosphate buffer (pH = 7.0, 8.0, 9.0, 10.0) was used as the mobile phase to perform isocratic elution. The injection volume was 10 µL and the detection wavelength for each eluted compound was set at its optimum absorption wavelength.
(§2) At each pH, the retention time (tR) of every analyte was determined for at least four different volume fractions (φ) of methanol. All the tR values of the solutes were obtained by averaging the results of at least three independent injections. The tR value was corrected using dual-point retention time correction (DP-RTC). For a detailed description of the process, refer to our previous work. For the different hydrophobicities of the studied compounds, benzene, toluene, and benzyl alcohol were used as anchor compounds in the DP-RTC method. The dead time t0 was determined using uracil. For each solute, the logarithm of k was plotted against φ, and logkw was obtained using the Equation (S1). The logD values of the model compounds were calculated using Equation (S3), and the logD–logkw models were established with Equation (S4). The statistical analysis for the regression model was accomplished using Origin 9.4. […]
Where, k is the capacity factor, φ is the volume fraction of organic modifier in the mobile phase, and S is the constant obtained by linear regression in the equations. […]
The Eqs. (S1) and (S2) are the basis for the determination of logP by revered- phase liquid chromatography (RPLC) method. For dissociative solutes, it has been confirmed by many studies that the logD calibrated from logP has a better linear correlation with logkw than logP. […]

Excerpt in data set [2]: as §1, §2

Consider `Cc1cccc(N)n1` [2-Amino-6-methylpyridine], for which the “logkw-pH 7.0” value in data set [1] (pH 7.0) is given as 0.99. Also, in data set [1] (pH 8.0), the “logkw-pH 8.0” value is on record as 1.13. In addition, in data set [1] (pH 9.0), the “logkw-pH 9.0” value is listed as 1.19. Further, the “logkw-pH 10.0” value in data set [1] (pH 10.0) is given as 1.27. Moreover, in data set [2] (pH 7), the “logDpH 7.0” value is recorded as 0.53. Also, the “logDpH 8.0” value in data set [2] (pH 8) was found to be 0.98.
